The data set can be described thus: Curability (sensitivity): change in film thickness after exposure and water immersion. Particulars: exposure light having a wavelength peak of 400 nm or longer.

For `O=C(O)c1cccc2c(=O)c3ccccc3sc12` [Compound 61], the “Curing / sensitivity in words” value is reported as “excellent sensitivity”. As for `O=C(O)c1cccc2c(=O)c3ccccc3sc12` [Compound 1], the “Curing / sensitivity in words” value was “excellent sensitivity”.

The values above are taken from patent US11618742B2, “Radical polymerization initiator, composition containing same, cured product of composition, production method for cured product, and compound” (ADEKA CORPORATION, priority 2018, dated 2023).
